PubChem BioAssay AID1259405 | NCATS – 2018
Aim: 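Silenced genes that increase secreted GFP made by CHO cells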 (primary screen). Cells: Chinese hamster CHO-K1 ovary cells with stable secreted eGFP expression. Reagent: single siRNA against mouse genes, 0.8 pmol siRNA per well (2 µl of 400 nM stock). Timing: 3 days. Read-out: 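Per-well intracellular GFP measured by laser scanning cytometry, plus viability from ATP luminescence, each relative to plate median of non-targeting control wells, in %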. Scale: GFP, % of control: higher = more GFP per well, higher productivity; viability (ATP), % of control: higher = more viable cells (more ATP). Rule for the call: 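Called active when intracellular GFP, relative to negative control, is at or above 120%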.
Shown is one part, drawn at random, of about 50,000 reagents. About 4,000 of all reagents (8%) count as active. 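Mouse siRNA library applied to hamster cells; one well for each siRNA.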 Entries without a mark were called inactive.

gene,PubChem SID,"GFP, % of control","viability (ATP), % of control"
Tenm4,SID363544624,47,41.3
Tenm4,SID363550952,79.9,69.7
Tenm4,SID363557501,45.3,49.7
Ddx56,SID363569668,70.9,55.4
Ddx56,SID363576708,61.6,40
Ddx56,SID363578116,71.6,64.7
Epm2a,SID363547625,58.7,59.8
Epm2a,SID363558394,55.5,75.8
Epm2a,SID363560152,62.6,82.3
Ndufs5,SID363581926,50.7,133
Ndufs5,SID363589420,91.1,80.9
Alx4,SID363569339,99.8,119
Alx4,SID363577083,102,105
Alx4,SID363578491,42.6,58.8
Rims3,SID363545179,109,85.8
Rims3,SID363548692,85.2,84.9
Rims3,SID363562498,47.9,56.4
Slc14a2,SID363574642,115,88.6
Slc14a2,SID363575698,107,60.9
Slc14a2,SID363580274,75.9,65.7
Tsga13,SID363556297,79.9,68.2
Tsga13,SID363586747,90.8,115
Tsga13,SID363588855,178 (active),104
Prl8a9,SID363541887,127 (active),73.4
Prl8a9,SID363553479,57.9,65.1
Prl8a9,SID363566803,35.6,40.2
Aldh3b3,SID363547850,67.4,66.7
Aldh3b3,SID363558619,99.5,57.6
Aldh3b3,SID363560377,92.6,94.3
Gpr27,SID363571226,144 (active),44.9
Gpr27,SID363571578,95.4,92.2
Gpr27,SID363571930,110,76.5
Nup107,SID363574835,83.8,88.7
Nup107,SID363575891,62,36.5
Nup107,SID363580467,44.6,61.3
